{"sequences": {"note": "Protein sequences, listed by entry. Tags and fused reporters are not part of them. Residues count along the entry.", "UniProt P02768, 25-609": "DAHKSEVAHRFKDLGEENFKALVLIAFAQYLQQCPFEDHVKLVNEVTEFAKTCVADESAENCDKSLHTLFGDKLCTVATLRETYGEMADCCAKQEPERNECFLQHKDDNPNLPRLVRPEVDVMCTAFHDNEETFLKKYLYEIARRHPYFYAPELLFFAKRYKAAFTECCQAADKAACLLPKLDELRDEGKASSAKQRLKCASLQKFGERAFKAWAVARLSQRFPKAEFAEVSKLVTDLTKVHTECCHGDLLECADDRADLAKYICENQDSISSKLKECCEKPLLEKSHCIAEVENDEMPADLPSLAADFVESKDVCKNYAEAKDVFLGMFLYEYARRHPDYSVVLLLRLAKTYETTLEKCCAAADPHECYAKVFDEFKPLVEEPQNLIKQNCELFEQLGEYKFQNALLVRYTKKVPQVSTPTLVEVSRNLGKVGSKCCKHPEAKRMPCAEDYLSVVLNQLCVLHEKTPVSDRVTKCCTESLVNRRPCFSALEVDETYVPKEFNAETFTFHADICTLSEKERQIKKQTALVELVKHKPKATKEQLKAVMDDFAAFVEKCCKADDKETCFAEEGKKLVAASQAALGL"}, "source": "patent US11007212B2", "about": "“Microbubble complexes and methods of use” (General Electric Company, priority 2011, dated 2021)", "molecular_target": "T1, Optison (Homo sapiens, UniProt P02768)", "T1 construct": "purchased GE Healthcare, Chalfont St. Giles, United Kingdom", "test": "Fluorescence polarization assay, binding to Optison", "settings": "fluorescein without the myristate conjugation", "note": "At least one compound was matched to its structure with a doubt left."}
{"molecule": "O=C1OC2(c3ccc(O)cc3Oc3cc(O)ccc32)c2ccccc21", "note": "[fluorescein]", "values": [{"measurement": "Changes in anisotropy on binding to albumin", "result": "no significant changes in anisotropy"}]}
